According to patent publication US8216786B2, “Genetic polymorphisms associated with cardiovascular diseases, methods of detection and uses thereof” (Celera Corporation, priority 2008, dated 2012):
The source gives many values for each of these; only a part stands here.

System: individuals who have previously had an MI
Assay: CARE trial: effect of pravastatin vs placebo on coronary events (endpt1, rmi) by SNP genotype subgroup
Assay type: in vivo, human
Procedure: In Tables 21-22, the column labeled “Endpoint” indicates whether the endpoint that was analyzed was the primary endpoint of the CARE study (a composite endpoint of fatal coronary event or nonfatal MI, and identified as “endpt1”) or a composite endpoint of confirmed fatal or nonfatal MI (identified as “rmi”). […] As used herein, the term “benefit” (with respect to a preventive or therapeutic drug treatment) is defined as achieving a reduced risk for a disease that the drug is intended to treat or prevent (e.g., CVD such as CHD, particularly MI, or hypertension) by administering the drug treatment, compared with the risk for the disease in the absence of receiving the drug treatment (or receiving a placebo in lieu of the drug treatment) for the same genotype. […] J. […] (1996) New England Journal of Medicine 335: 1001-1009. […] A well-documented MI was one of the enrollment criteria for entry into the CARE study. Patients were enrolled in the CARE trial from 80 participating study centers. […] For the study of CARE described in this Example and shown in Tables 21-22, two endpoints were investigated: the primary endpoint of CARE (a composite endpoint of fatal coronary event or nonfatal MI, and identified as “endpt1” in the Endpoint column of Tables 21-22) and a composite endpoint of confirmed fatal or nonfatal MI (identified as “rmi” in the Endpoint column of Tables 21-22). […] HR stands for Hazard Ratio, which is a concept similar to Odds Ratio (OR). The HR in event-free survival analysis is the effect of an explanatory variable on the hazard or risk of an event. […] In Table 21, p-interaction values were calculated. An interaction (or effect modification) is formed when a third variable modifies the relation between an exposure and outcome. […] Genotype and drug interaction is present when the effect of statins (incidence rate of disease in statin-treated group, as compared to placebo) differs in patients with different genotypes.

[1] = endpt1, hCV5478 rs1800574 TCF1, CC
[2] = endpt1, hCV5478 rs1800574 TCF1, TC + TT
[3] = endpt1, hCV529706 rs428785 ADAMTS1, CG + CC
[4] = endpt1, hCV529706 rs428785 ADAMTS1, GG
[5] = endpt1, hCV529710 rs402007 ADAMTS1, CG + CC
[6] = endpt1, hCV529710 rs402007 ADAMTS1, GG
[7] = endpt1, hCV549926 rs1057141 Tap1or, CT + CC
[8] = endpt1, hCV549926 rs1057141 Tap1or, TT
[9] = endpt1, hCV594695 rs45551939 SERPINA1, AT + AA
[10] = endpt1, hCV594695 rs45551939 SERPINA1, TT
[11] = endpt1, hCV598677 rs5370 EDN1, GG
[12] = endpt1, hCV598677 rs5370 EDN1, TG + TT
[13] = endpt1, hCV783138 rs6046 F10, AG + AA
[14] = endpt1, hCV783138 rs6046 F10, GG
[15] = endpt1, hCV783184 rs510335, TG + TT
[16] = endpt1, hCV795441 rs401502 IL12RB1, CC
[17] = endpt1, hCV795441 rs401502 IL12RB1, GC + GG
[18] = endpt1, hCV2633049 rs2302006 CCL24, GT + GG
[19] = endpt1, hCV2633049 rs2302006 CCL24, TT
[20] = endpt1, hCV2658421 rs3176975 APOH, AC + AA
[21] = endpt1, hCV2658421 rs3176975 APOH, CC
[22] = endpt1, hCV2741051 rs2230806 ABCA1, CC
[23] = endpt1, hCV2741051 rs2230806 ABCA1, TC + TT
[24] = endpt1, hCV2741083 rs4149313 ABCA1, CT + CC
[25] = endpt1, hCV2741083 rs4149313 ABCA1, TT
[26] = endpt1, hCV2932115 rs5517 KLK1, CT + CC
[27] = endpt1, hCV2932115 rs5517 KLK1, TT
[28] = endpt1, hCV2983035 rs9527026 KL, AG + AA
[29] = endpt1, hCV2983035 rs9527026 KL, GG
[30] = endpt1, hCV3026189 rs11739136 KCNIP1, CC
[31] = endpt1, hCV3026189 rs11739136 KCNIP1, TC + TT
[32] = endpt1, hCV3068176 rs1801394 MTRR, AG + AA
[33] = endpt1, hCV3068176 rs1801394 MTRR, GG
[34] = endpt1, hCV3111721 rs33950747 NPHS1, CC
[35] = endpt1, hCV3111721 rs33950747 NPHS1, TC + TT
[36] = endpt1, hCV7441704 rs1800205 PPT1, AA
[37] = endpt1, hCV7441704 rs1800205 PPT1, GA + GG
[38] = endpt1, hCV7443062 rs897453 PEMT, CC
[39] = endpt1, hCV7443062 rs897453 PEMT, TC + TT
[40] = endpt1, hCV7475492 rs1138469 HSPG2, CC
[41] = endpt1, hCV7475492 rs1138469 HSPG2, TC + TT
[42] = endpt1, hCV7490135 rs1805082 NPC1, CT + CC
[43] = endpt1, hCV7490135 rs1805082 NPC1, TT
[44] = endpt1, hCV7494810 rs1058587 GDF15, CC
[45] = endpt1, hCV7494810 rs1058587 GDF15, GC + GG
[46] = endpt1, hCV7499212 rs1800127 LRP1, CC
[47] = endpt1, hCV7499212 rs1800127 LRP1, TC + TT
[48] = endpt1, hCV7514879 rs1800629, AG + AA
[49] = endpt1, hCV7514879 rs1800629, GG
[50] = endpt1, hCV7577801 rs11876 SLC9A3R2, CC
[51] = endpt1, hCV7577801 rs11876 SLC9A3R2, TC + TT

SMILES: CC[C@H](C)C(=O)O[C@H]1C[C@H](O)C=C2C=C[C@H](C)[C@H](CC[C@@H](O)C[C@@H](O)CC(=O)O)[C@H]21 [pravastatin]
- EVENTS (Pravastatin arm) [1]: 122
- NONEVENT (Pravastatin arm) [1]: 1217
- EVENTS (Pravastatin arm) [2]: 11
- NONEVENT (Pravastatin arm) [2]: 75
- EVENTS (Pravastatin arm) [3]: 55
- NONEVENT (Pravastatin arm) [3]: 569
- EVENTS (Pravastatin arm) [4]: 77
- NONEVENT (Pravastatin arm) [4]: 719
- EVENTS (Pravastatin arm) [5]: 57
- NONEVENT (Pravastatin arm) [5]: 570
- EVENTS (Pravastatin arm) [6]: 76
- NONEVENT (Pravastatin arm) [6]: 720
- EVENTS (Pravastatin arm) [7]: 33
- NONEVENT (Pravastatin arm) [7]: 395
- EVENTS (Pravastatin arm) [8]: 99
- NONEVENT (Pravastatin arm) [8]: 894
- EVENTS (Pravastatin arm) [9]: 19
- NONEVENT (Pravastatin arm) [9]: 115
- EVENTS (Pravastatin arm) [10]: 112
- NONEVENT (Pravastatin arm) [10]: 1169
- EVENTS (Pravastatin arm) [11]: 89
- NONEVENT (Pravastatin arm) [11]: 774
- EVENTS (Pravastatin arm) [12]: 44
- NONEVENT (Pravastatin arm) [12]: 518
- EVENTS (Pravastatin arm) [13]: 31
- NONEVENT (Pravastatin arm) [13]: 258
- EVENTS (Pravastatin arm) [14]: 101
- NONEVENT (Pravastatin arm) [14]: 1033
- EVENTS (Pravastatin arm) (endpt1, hCV783184 rs510335, GG): 100
- NONEVENT (Pravastatin arm) (endpt1, hCV783184 rs510335, GG): 1008
- EVENTS (Pravastatin arm) [15]: 32
- NONEVENT (Pravastatin arm) [15]: 282
- EVENTS (Pravastatin arm) [16]: 52
- NONEVENT (Pravastatin arm) [16]: 596
- EVENTS (Pravastatin arm) [17]: 81
- NONEVENT (Pravastatin arm) [17]: 690
- EVENTS (Pravastatin arm) [18]: 48
- NONEVENT (Pravastatin arm) [18]: 440
- EVENTS (Pravastatin arm) [19]: 85
- NONEVENT (Pravastatin arm) [19]: 849
- EVENTS (Pravastatin arm) [20]: 48
- NONEVENT (Pravastatin arm) [20]: 522
- EVENTS (Pravastatin arm) [21]: 84
- NONEVENT (Pravastatin arm) [21]: 769
- EVENTS (Pravastatin arm) [22]: 67
- NONEVENT (Pravastatin arm) [22]: 647
- EVENTS (Pravastatin arm) [23]: 66
- NONEVENT (Pravastatin arm) [23]: 645
- EVENTS (Pravastatin arm) [24]: 36
- NONEVENT (Pravastatin arm) [24]: 316
- EVENTS (Pravastatin arm) [25]: 97
- NONEVENT (Pravastatin arm) [25]: 976
- EVENTS (Pravastatin arm) [26]: 75
- NONEVENT (Pravastatin arm) [26]: 591
- EVENTS (Pravastatin arm) [27]: 58
- NONEVENT (Pravastatin arm) [27]: 701
- EVENTS (Pravastatin arm) [28]: 36
- NONEVENT (Pravastatin arm) [28]: 387
- EVENTS (Pravastatin arm) [29]: 97
- NONEVENT (Pravastatin arm) [29]: 903
- EVENTS (Pravastatin arm) [30]: 104
- NONEVENT (Pravastatin arm) [30]: 1050
- EVENTS (Pravastatin arm) [31]: 29
- NONEVENT (Pravastatin arm) [31]: 241
- EVENTS (Pravastatin arm) [32]: 100
- NONEVENT (Pravastatin arm) [32]: 908
- EVENTS (Pravastatin arm) [33]: 33
- NONEVENT (Pravastatin arm) [33]: 384
- EVENTS (Pravastatin arm) [34]: 121
- NONEVENT (Pravastatin arm) [34]: 1098
- EVENTS (Pravastatin arm) [35]: 11
- NONEVENT (Pravastatin arm) [35]: 191
- EVENTS (Pravastatin arm) [36]: 125
- NONEVENT (Pravastatin arm) [36]: 1169
- EVENTS (Pravastatin arm) [37]: 7
- NONEVENT (Pravastatin arm) [37]: 118
- EVENTS (Pravastatin arm) [38]: 31
- NONEVENT (Pravastatin arm) [38]: 395
- EVENTS (Pravastatin arm) [39]: 102
- NONEVENT (Pravastatin arm) [39]: 897
- EVENTS (Pravastatin arm) [40]: 109
- NONEVENT (Pravastatin arm) [40]: 1132
- EVENTS (Pravastatin arm) [41]: 23
- NONEVENT (Pravastatin arm) [41]: 156
- EVENTS (Pravastatin arm) [42]: 85
- NONEVENT (Pravastatin arm) [42]: 924
- EVENTS (Pravastatin arm) [43]: 48
- NONEVENT (Pravastatin arm) [43]: 363
- EVENTS (Pravastatin arm) [44]: 86
- NONEVENT (Pravastatin arm) [44]: 730
- EVENTS (Pravastatin arm) [45]: 46
- NONEVENT (Pravastatin arm) [45]: 559
- EVENTS (Pravastatin arm) [46]: 128
- NONEVENT (Pravastatin arm) [46]: 1229
- EVENTS (Pravastatin arm) [47]: 5
- NONEVENT (Pravastatin arm) [47]: 63
- EVENTS (Pravastatin arm) [48]: 33
- NONEVENT (Pravastatin arm) [48]: 403
- EVENTS (Pravastatin arm) [49]: 100
- NONEVENT (Pravastatin arm) [49]: 885
- EVENTS (Pravastatin arm) [50]: 77
- NONEVENT (Pravastatin arm) [50]: 798
- EVENTS (Pravastatin arm) [51]: 56
- NONEVENT (Pravastatin arm) [51]: 491
- EVENTS (Pravastatin arm) (endpt1, hCV7618856 rs1143675 ITGA4, CT + CC): 4
